According to paper PMC7819943, “Rice protein-binding microarrays: a tool to detect cis-acting elements near promoter regions in rice”:
Some of the results follow.

Protein sequences, listed by entry. Tags and fused reporters are not part of them.
UniProt Q0JBA9, entry or part of it: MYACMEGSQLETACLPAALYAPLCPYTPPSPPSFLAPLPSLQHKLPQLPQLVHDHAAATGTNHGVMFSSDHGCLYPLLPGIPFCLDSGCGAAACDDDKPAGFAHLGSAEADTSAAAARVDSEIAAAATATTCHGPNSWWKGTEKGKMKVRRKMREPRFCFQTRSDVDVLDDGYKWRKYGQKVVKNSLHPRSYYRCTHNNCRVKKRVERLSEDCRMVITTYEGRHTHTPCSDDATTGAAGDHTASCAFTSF

Target: OsWRKY34 (Oryza sativa, UniProt Q0JBA9 1-250)
Assay: protein-binding microarray (RPBM); PBS, 2% BSA, 51.3 ng/ul salmon testes DNA, 50 uM zinc acetate, 200 nM TF, 25 C, 1 h; high values mean tight binding
Conditions: protein: recombinant; tags: N-terminal polyhistidine and DsRed monomer fusion (pET32a); label: CyDye5-dUTP incorporated in the synthesized complementary strand; 3' TTTTT single-stranded linker to array surface; dsDNA, one strand shown
Method in brief: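 Transcription factors were made in E. coli BL21-CodonPlus as N-terminal fusions to a polyhistidine tag and DsRed, then purified on Ni–NTA. After primer extension with Cy5-dUTP and blocking with 2% BSA, a custom Agilent array was exposed for 1 h at 25 °C to 200 nM protein in PBS, 2% BSA, salmon testes DNA and 50 µM zinc acetate. Washed arrays were scanned on an Axon 4000B, and the binding signal is per-feature fluorescence intensity in arbitrary units.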

Sequence | binding signal
TTGTGGTGATTGAGAGGGTTTGAAAGGGGTTGATGTGTGGCGGAGTCACCTAGTGCAG | 8200 fluorescence intensity (a.u.)
GCTGCCATCACTTCGTCCTCTCCCTGTTCCTGGACGTCCTCGGAGTCACCTAGTGCAG | 8410 fluorescence intensity (a.u.)
CACAGTCAAATCATCACAATGCTCCTGTCTGATTCTGTTACGGAGTCACCTAGTGCAG | 9690 fluorescence intensity (a.u.)
CACCACCCAGATCTGTCTCGTCTCTGTTCTTGCCTTCGCTCGGAGTCACCTAGTGCAG | 11900 fluorescence intensity (a.u.)
TTGGTTTTCTTAAATTTATTTTTTCCTTTTTTTTCTTTTACGGAGTCACCTAGTGCAG | 10800 fluorescence intensity (a.u.)
CCACTGCCACCGCCCCTCGCCGCTGACGACCGCCGCCGCCCGGAGTCACCTAGTGCAG | 9580 fluorescence intensity (a.u.)
CCAACCTGTTAGCTGTCTCCTCACCTCTCCATGATCAACTCGGAGTCACCTAGTGCAG | 9040 fluorescence intensity (a.u.)
ATTTGCCGCCGCCACCGCACCGCCCAACTCTGGTTCTTGACGGAGTCACCTAGTGCAG | 8440 fluorescence intensity (a.u.)
GACATTTCGGCTGAGTTCTTTGGCTACCTTTCTCCTTTTCCGGAGTCACCTAGTGCAG | 8500 fluorescence intensity (a.u.)
CGATGTGTTTGTATTATATTTATGCAAGTCATATTTAAACCGGAGTCACCTAGTGCAG | 8540 fluorescence intensity (a.u.)
TTTCACTTTTCAGCCATGAGGCTGTCGTCCCTGCTGTTCTCGGAGTCACCTAGTGCAG | 8530 fluorescence intensity (a.u.)
AGTGATGAACGCACAAACGGTATTTGACTTTTTTGTCCATCGGAGTCACCTAGTGCAG | 9170 fluorescence intensity (a.u.)
GAATTGATCTCATGCATGCCAACCCTTCTAGCAATCTATCCGGAGTCACCTAGTGCAG | 9310 fluorescence intensity (a.u.)
AACTTTTCCGTGACATCGTTCGAATTTCAACCAAACTTTCCGGAGTCACCTAGTGCAG | 9590 fluorescence intensity (a.u.)
TCCGTTTGTTTTGTCTTCATATTGTTTTTCTTTTACAGATCGGAGTCACCTAGTGCAG | 14500 fluorescence intensity (a.u.)
TTCCCTCCATATTTTAATGTATGACGCCGTTGACTTTTTACGGAGTCACCTAGTGCAG | 17700 fluorescence intensity (a.u.)
ACATCTCGCGCTGCTGCTCTCCTCTTCCGTTCCAACGCCCCGGAGTCACCTAGTGCAG | 9750 fluorescence intensity (a.u.)
CTCCGAACCCCACCGTTTTATGCTCTAGTTGTGTTTTGGGCGGAGTCACCTAGTGCAG | 10900 fluorescence intensity (a.u.)
CTAGGGTTAGGGGTTTGGGTGGGGAAATTTTCACGAGGGACGGAGTCACCTAGTGCAG | 14600 fluorescence intensity (a.u.)
TCGTCGTTGTGTTCAACTATTGCACTACCTCCCTCCTAGTCGGAGTCACCTAGTGCAG | 8580 fluorescence intensity (a.u.)
TTCATCTCACGTACTGTTCTTTTGCCTCTCGCTAGCTCGTCGGAGTCACCTAGTGCAG | 9220 fluorescence intensity (a.u.)

3 successive records already listed:
Sequence | binding signal
CGATGTGTTTGTATTATATTTATGCAAGTCATATTTAAACCGGAGTCACCTAGTGCAG | 8540 fluorescence intensity (a.u.)
TTTCACTTTTCAGCCATGAGGCTGTCGTCCCTGCTGTTCTCGGAGTCACCTAGTGCAG | 8530 fluorescence intensity (a.u.)
AGTGATGAACGCACAAACGGTATTTGACTTTTTTGTCCATCGGAGTCACCTAGTGCAG | 9170 fluorescence intensity (a.u.)

More results follow.

Sequence | binding signal
TGTTTTTTTCCCTATTTTTGTTTCTGCATCTTGACATTTTCGGAGTCACCTAGTGCAG | 16000 fluorescence intensity (a.u.)
CCGCGACACAACCCTGCCACCGTCGCCGCTTTCTTTGCCGCGGAGTCACCTAGTGCAG | 11600 fluorescence intensity (a.u.)
TATGTCATATATTAATTTATCTTGTTTATTTTTTTCAATTCGGAGTCACCTAGTGCAG | 8660 fluorescence intensity (a.u.)
ATCTGGTTTTGTGATTTGAGGATGTTTTTTATTTCGCTGACGGAGTCACCTAGTGCAG | 8750 fluorescence intensity (a.u.)
GGCGCAGATCCAGTTAACCCTATCACATTTCACCATGTACCGGAGTCACCTAGTGCAG | 8230 fluorescence intensity (a.u.)
AATAAACGCCGATCCAACCGCACACTCGCGCGGTGCCGCGCGGAGTCACCTAGTGCAG | 9020 fluorescence intensity (a.u.)
ACAAATTTAGGGACCGCTCATGCACTTCACTCTTGTTCTTCGGAGTCACCTAGTGCAG | 8290 fluorescence intensity (a.u.)
GGTTGGCCGCTGTTGTCTCTCAACCGAATCGTTGATCGCGCGGAGTCACCTAGTGCAG | 8810 fluorescence intensity (a.u.)
GAGGACGAAGTGGAGGCGGAGGGCAGGTGGGGAGGAGAGCCGGAGTCACCTAGTGCAG | 8660 fluorescence intensity (a.u.)
TCGTTTCCCACGTGCACATTTTTCAAACCGTTAAACGGTGCGGAGTCACCTAGTGCAG | 9930 fluorescence intensity (a.u.)
AGTTCAAGACCTTGTCATCACGTTGCTCATTCCGGCCATGCGGAGTCACCTAGTGCAG | 8150 fluorescence intensity (a.u.)
CCATCACCTGCCGAGCTGCTGAGCTACCCATCGTTCGCGACGGAGTCACCTAGTGCAG | 9250 fluorescence intensity (a.u.)
TGACTGTTTATTTTATTTGAAATTTCTTTATGATTAGTATCGGAGTCACCTAGTGCAG | 12100 fluorescence intensity (a.u.)
TTATACTACACAACGAATATGGACCGTTCTTGCTTCTTTTCGGAGTCACCTAGTGCAG | 9130 fluorescence intensity (a.u.)
GACAGCTTCTAAAATTCTGCAAATTCCACGTGAAACAGTTCGGAGTCACCTAGTGCAG | 8120 fluorescence intensity (a.u.)
ATTCCATCCATTCTCTGGGAATCGCCGTCGCCGTCGCCTTCGGAGTCACCTAGTGCAG | 8200 fluorescence intensity (a.u.)
TCTACTAGCCTACTACCCCACAGCAGCCAGGAACCAGCCACGGAGTCACCTAGTGCAG | 8580 fluorescence intensity (a.u.)
GGGGCAATTCAGGTGAGATCCCATGTAGATCTAACTTTCTCGGAGTCACCTAGTGCAG | 8430 fluorescence intensity (a.u.)
GTTATCATGGTTATCATGTGCGGTAGCCTTTTTAGTTTTTCGGAGTCACCTAGTGCAG | 10800 fluorescence intensity (a.u.)
TCCGCTGCTGATCGAGCACATATGCTGAAATCTCTAATTCCGGAGTCACCTAGTGCAG | 8040 fluorescence intensity (a.u.)
GATCTACAACTTTTATTTTGGTCATTTTTTCATCCGATCACGGAGTCACCTAGTGCAG | 11100 fluorescence intensity (a.u.)

Sequence | binding signal
GCACCCATTCCCGTGTTGTGCGTTGTTTTTTTAGCGATTTCGGAGTCACCTAGTGCAG | 8660 fluorescence intensity (a.u.)
CTTAGGCCCGGTTCTTTTCTAAATAAAAATTGATTTCTTTCGGAGTCACCTAGTGCAG | 8390 fluorescence intensity (a.u.)
CAAGGACACATAGCTTCGCTGCCGCCACACCCGACTATTACGGAGTCACCTAGTGCAG | 9710 fluorescence intensity (a.u.)
GTCTCGCAATTTCTTCTCTAACTGTGCAATTAGTTTTTTACGGAGTCACCTAGTGCAG | 9090 fluorescence intensity (a.u.)
CGTGAGATCGAAACCACAGCTGCTCTGAGTTGACCTCCTTCGGAGTCACCTAGTGCAG | 8650 fluorescence intensity (a.u.)
CGCTCGGAGTTCGTCTGCCTCACCACCGTCGTCGCCATGCCGGAGTCACCTAGTGCAG | 10200 fluorescence intensity (a.u.)
TGTTCCACTGTTGTGTGTGTGGCATTCTTGTACTGCATTTCGGAGTCACCTAGTGCAG | 11900 fluorescence intensity (a.u.)
GCCCTGTCGCTCGAGTTCATCCGCGTATGCTTAGCCGCGTCGGAGTCACCTAGTGCAG | 9460 fluorescence intensity (a.u.)
CGATCTTATTAAGCAGTCTATTTTCACCCTTATCTTTACTCGGAGTCACCTAGTGCAG | 8100 fluorescence intensity (a.u.)
TCACCCGCGCCTGGTCCCACCCGTCATGGAGAATAACAAACGGAGTCACCTAGTGCAG | 8480 fluorescence intensity (a.u.)
GCAGCGCCGCCTCCGCCGTCTCTATTTTCTTTTCTAGTTGCGGAGTCACCTAGTGCAG | 8530 fluorescence intensity (a.u.)
ACAAAACCTGCCGTTTCACCGCCCCTGGATTGTCCCAGAACGGAGTCACCTAGTGCAG | 8360 fluorescence intensity (a.u.)
TCCCCACCACGCACACCGTTGTAACAAATCACCTACATATCGGAGTCACCTAGTGCAG | 8270 fluorescence intensity (a.u.)
GTTCCCGGCCACCGCGCACCGTATCGCCGCCGCCGCCGCGCGGAGTCACCTAGTGCAG | 10500 fluorescence intensity (a.u.)
TCATTCCGCTACATCGATCTCTTGGGTCTTGGCTTGCCTGCGGAGTCACCTAGTGCAG | 8960 fluorescence intensity (a.u.)
ACATTCTTTGCATCATATATTAGTAGGTTTATACTGAGCCCGGAGTCACCTAGTGCAG | 8800 fluorescence intensity (a.u.)
CTCGTTCTCTCTCTCCCAGTCTCTCACTCTCGTTCTATCTCGGAGTCACCTAGTGCAG | 15700 fluorescence intensity (a.u.)
ATCTGGCGCCATGCATCCATCTCGATTAGCTGTCAACGCTCGGAGTCACCTAGTGCAG | 11900 fluorescence intensity (a.u.)
CCACGAGTGTAGTTGGTTGGTTCATGGTTGGGCTGCCTGGCGGAGTCACCTAGTGCAG | 10000 fluorescence intensity (a.u.)
TTCCTTGTGCTCCTCTGTTCTTTCTTCTCCCCTACGATTTCGGAGTCACCTAGTGCAG | 9500 fluorescence intensity (a.u.)
TTTGCTTCTTCTAGGCTTTTCTGTTTTATAAGGCCACTTTCGGAGTCACCTAGTGCAG | 12500 fluorescence intensity (a.u.)

Sequence | binding signal
GTAGAAAAATCTGCACCGGAAGATCGCCGCCGTTCATTTCCGGAGTCACCTAGTGCAG | 8410 fluorescence intensity (a.u.)
CGCCGCCATGTCCGCCGCCGCCGCCGCCCTCCGGCCGACCCGGAGTCACCTAGTGCAG | 10100 fluorescence intensity (a.u.)
CACTTGTCAGTCGCACGTGCCCATCTCCAAACTCGCAACCCGGAGTCACCTAGTGCAG | 8880 fluorescence intensity (a.u.)
GGCCGTTTGCAAGGCGTGGCTGGTTGGGTGGATGGATGGACGGAGTCACCTAGTGCAG | 9140 fluorescence intensity (a.u.)
GCGGCACACCCACTCGTACAATTCACATGCTTCAACCTGTCGGAGTCACCTAGTGCAG | 13100 fluorescence intensity (a.u.)
ACCAGCCTTTACAAAACCACGTGGTTACCTCATGATTTACCGGAGTCACCTAGTGCAG | 9080 fluorescence intensity (a.u.)
CATATTCTCACGCCCTACCTTTTTCTCGTCTCTTGTGTCTCGGAGTCACCTAGTGCAG | 12000 fluorescence intensity (a.u.)
CTCACCATTTCATTTTATTTTTCATTTTTCACCACAAATTCGGAGTCACCTAGTGCAG | 9050 fluorescence intensity (a.u.)
CGCTTGAATGCTCTCGGAAACGGACGTTTTCTCTCGGGTCCGGAGTCACCTAGTGCAG | 8220 fluorescence intensity (a.u.)
CTTCCGCACGACGTCGCGTACGTCTCGTCTCGGTATATTTCGGAGTCACCTAGTGCAG | 8240 fluorescence intensity (a.u.)
ATTTCGTGCACTTCAGTTTCTTGCGTGCGAGCATCGATTTCGGAGTCACCTAGTGCAG | 8850 fluorescence intensity (a.u.)
GTTTTGTTAAATCCATTATCTTGTTTGTTTTGTTCACTTTCGGAGTCACCTAGTGCAG | 11900 fluorescence intensity (a.u.)
ATCACGTGTGCCACGTGTCCTTTGACCAGCGACACGTGTCCGGAGTCACCTAGTGCAG | 8230 fluorescence intensity (a.u.)
AGCGTGCACATAATGAGTTTTTTCATCACGACAATTCTTCCGGAGTCACCTAGTGCAG | 10200 fluorescence intensity (a.u.)
AGTTATTTATTTTGTTGTGGTTTGTTTTATAGTTAAAGGTCGGAGTCACCTAGTGCAG | 10100 fluorescence intensity (a.u.)
ATGAATGGTTTCATACGCGTCTTCTCTCTTTTCTTGATGTCGGAGTCACCTAGTGCAG | 10500 fluorescence intensity (a.u.)
CCAACTCTTGTCCTCGCGCGAAACCGATCAAAATCCCGGACGGAGTCACCTAGTGCAG | 9090 fluorescence intensity (a.u.)
CCCTATACGACACCCTATATAATATCTGATATAACACACTCGGAGTCACCTAGTGCAG | 8660 fluorescence intensity (a.u.)
ATCTTTTTATCGCACGTTTGATCATTCGTTTTATTAATAACGGAGTCACCTAGTGCAG | 8590 fluorescence intensity (a.u.)
TGTGGATGGAAAAGAGAGAGAGTGTGTGGCAATAAAATCCCGGAGTCACCTAGTGCAG | 8060 fluorescence intensity (a.u.)
TCACCGTTGGGGCTCGTTGGGGCTCGTTGGGGCTTGAGCCCGGAGTCACCTAGTGCAG | 9210 fluorescence intensity (a.u.)
